Counter-ions that a name gives are not always drawn. This is one part of the list. Most values lie at the level of the controls, where differences are scatter.
Assays:
Conditions in all cases: 5 µM; treatment: days 7-14 after plating, readout day 21
[1] = tested on: hPSC-derived cortical neurons (WA09); assay: nucleus area z-score vs screen plate; higher = larger nuclei (more mature)
[2] = tested on: hPSC-derived cortical neurons (WA09); assay: total neurite length per nucleus (MAP2) z-score; higher = more neurite growth
[3] = tested on: hPSC-derived cortical neurons (WA09); assay: nucleus roundness z-score vs screen plate; higher = rounder nuclei (more mature)
[4] = tested on: hPSC-derived cortical neurons (WA09); assay: KCl-induced FOS+/EGR-1+ double-positive nuclei fraction z-score (KCl minus unstimulated); higher = stronger activity-induced IEG response

Row | SMILES | nucleus area z-score [1] | total neurite length per nucleus (z-score) [2] | nucleus roundness z-score [3] | KCl-induced FOS+/EGR-1+ double-positive nuclei fraction z-score [4]
1 | Cn1cc(-c2ccc(S(=O)(=O)n3ccc(/C=C/C(=O)Nc4ccccc4N)c3)cc2)cn1 | -0.317 | 0.497 | 0.295 | 0.446
2 | CO[C@@]1(NC(=O)C(C(=O)O)c2ccc(O)cc2)C(=O)N2C(C(=O)O)=C(CSc3nnnn3C)CO[C@@H]21 (stereo partly drawn) [Moxalactam Disodium] | 1.95 | -0.913 | -1.04 | 0.0872
3 | CCN(CC)CCCCNc1ncc2cc(-c3cc(OC)cc(OC)c3)c(NC(=O)NC(C)(C)C)nc2n1 | -1.41 | 0.615 | 0.157 | -0.73
4 | O=C(O)CSc1nnc(Br)n1-c1ccc(C2CC2)c2ccccc12 [Lesinurad] | 0.404 | -0.776 | -0.495 | -0.597
5 | COc1ccc(C2=N[C@H](c3ccc(Cl)cc3)[C@H](c3ccc(Cl)cc3)N2C(=O)N2CCNC(=O)C2)c(OC(C)C)c1 [Nutlin-3b] | 0.349 | 0.989 | 1.84 | 0.108
6 | NC(=O)c1cn(Cc2c(F)cccc2F)nn1 [Rufinamide] | 0.897 | 0.116 | 0.186 | 0.366
7 | Cc1cc(C(O)=C2C(=O)C(=O)N(CCCN3CCOCC3)C2c2ccncc2)ccc1OCc1ccccc1 (stereo not drawn) | 0.103 | 0.0888 | -0.562 | 0.114
8 | CCOc1cc2ncc(C#N)c(Nc3ccc(F)c(Cl)c3)c2cc1NC(=O)/C=C/CN(C)C [Pelitinib (EKB-569)] | -7.89 | -3.22 | 2.17 | -2.08
9 | COc1ccc(NS(=O)(=O)c2ccc(N)cc2)nn1 [Sulfamethoxypyridazine] | 0.245 | 0.852 | 0.877 | 0.715
10 | Cc1ccccc1-n1c(Cn2nc(-c3cccc(O)c3)c3c(N)ncnc32)nc2cccc(C)c2c1=O | -0.801 | 0.438 | 0.159 | 0.34
11 | Cc1nc(=O)c2cc(CN(C)c3ccc(C(=O)N[C@@H](CCC(=O)O)C(=O)O)s3)ccc2[nH]1 [Raltitrexed] | -0.208 | 0.464 | 0.947 | 0.869
12 | COc1ccccc1S(=O)(=O)Nc1ccc2c(c1)CN(C)C(=O)N2 | -0.137 | -0.561 | 0.446 | 0.227
13 | CS(=O)(=O)Nc1ccc([N+](=O)[O-])cc1Oc1ccccc1 [Nimesulide] | 0.257 | 0.0292 | 0.336 | 0.226
14 | CN(C)CC[C@H](CSc1ccccc1)Nc1ccc(S(=O)(=O)NC(=O)c2ccc(N3CCN(Cc4ccccc4-c4ccc(Cl)cc4)CC3)cc2)cc1[N+](=O)[O-] | -0.341 | 0.858 | -2.86 | 1.3
15 | Nc1cccc2c1C(=O)N(C1CCC(=O)NC1=O)C2=O (stereo not drawn) [Pomalidomide] | 0.681 | 1.26 | -0.829 | 0.205
16 | OC(CC1c2ccccc2-c2cncn21)C1CCCCC1 (stereo not drawn) | 0.226 | 0.788 | 1.52 | -0.0268
17 | CNC(=O)c1ccc2cc([C@@]3(O)CCn4cncc43)ccc2c1 [TAK-700 (Orteronel)] | -0.248 | -0.233 | -0.635 | -0.258
18 | Cc1ccc(NC(=O)Nc2cc(C(F)(F)F)ccc2F)cc1Nc1ccc2c(c1)NC(=O)/C2=C\c1ccc[nH]1 | -6.83 | -4.46 | -4 | -0.562
19 | NC[C@H](O)c1ccc(O)c(O)c1 [Noradrenaline bitartrate monohydrate] | 1.12 | 0.785 | 0.246 | 2.8
20 | CC(C(=O)O)c1ccc2c(c1)CC(=O)c1ccccc1S2 (stereo not drawn) [Zaltoprofen] | -0.164 | 0.173 | 0.524 | -0.0598
21 | C=CC(=O)Nc1cccc(Oc2nc(Nc3ccc(N4CCN(C)CC4)cc3)ncc2Cl)c1 | -1.78 | -0.364 | -0.295 | -1.15
22 | COc1cc2c(cc1OC)CC(=O)N(CCCN(C)C[C@H]1Cc3cc(OC)c(OC)cc31)CC2 [Ivabradine HCl] | -0.391 | 0.683 | 1.14 | -0.367
23 | CC(CNC(=O)c1cccnc1)NC(=O)c1cccnc1 (stereo not drawn) [Nicaraven] | 1.32 | -1.21 | -0.751 | -0.23
24 | COc1cc(/C=C/C(=O)N2CCC=CC2=O)cc(OC)c1OC [Piperlongumine] | -3.94 | -0.545 | -0.312 | 0.0651
25 | CC(C)c1ccc(NC(=O)Cn2cnc3c2c(=O)n(C)c(=O)n3C)cc1 | -0.54 | 0.499 | 0.208 | 0.254
26 | Nc1ncnc2c1C(=O)N(c1ccc([C@H]3CC[C@H](CC(=O)O)CC3)cc1)CCO2 | 0.313 | 0.756 | 0.452 | 1.82
27 | NC(=O)c1cccc2[nH]c(-c3ccc(C4CCCN4)cc3F)nc12 (stereo not drawn) | -0.541 | -0.415 | 0.504 | -0.567

Among those listed so far, these contain a nitro group on carbon:
Row | SMILES | nucleus area z-score [1] | total neurite length per nucleus (z-score) [2] | nucleus roundness z-score [3] | KCl-induced FOS+/EGR-1+ double-positive nuclei fraction z-score [4]
13 | CS(=O)(=O)Nc1ccc([N+](=O)[O-])cc1Oc1ccccc1 [Nimesulide] | 0.257 | 0.0292 | 0.336 | 0.226
14 | CN(C)CC[C@H](CSc1ccccc1)Nc1ccc(S(=O)(=O)NC(=O)c2ccc(N3CCN(Cc4ccccc4-c4ccc(Cl)cc4)CC3)cc2)cc1[N+](=O)[O-] | -0.341 | 0.858 | -2.86 | 1.3

Reference: the supplement of paper PMC11348887
